Test results taken from the supplement of paper PMC10849652.
This is one part of the list.

The chains behind the UniProt entries cited, without tags or fusion partners. Where a name states a change or a piece, a line headed by the entry shows the natural chain unless it says otherwise.
UniProt Q03154: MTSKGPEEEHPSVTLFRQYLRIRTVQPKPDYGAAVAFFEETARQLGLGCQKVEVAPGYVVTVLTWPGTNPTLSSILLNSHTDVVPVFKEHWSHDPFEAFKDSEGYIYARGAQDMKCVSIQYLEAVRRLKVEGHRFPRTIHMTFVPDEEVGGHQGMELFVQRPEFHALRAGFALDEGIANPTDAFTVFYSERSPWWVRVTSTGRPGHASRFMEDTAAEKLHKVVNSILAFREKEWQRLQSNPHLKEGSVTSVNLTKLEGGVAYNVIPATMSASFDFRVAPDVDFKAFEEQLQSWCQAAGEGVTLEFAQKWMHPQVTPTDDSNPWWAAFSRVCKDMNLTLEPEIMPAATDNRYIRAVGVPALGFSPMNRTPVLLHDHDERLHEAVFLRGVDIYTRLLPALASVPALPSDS
UniProt P42025, whole entry, looked up: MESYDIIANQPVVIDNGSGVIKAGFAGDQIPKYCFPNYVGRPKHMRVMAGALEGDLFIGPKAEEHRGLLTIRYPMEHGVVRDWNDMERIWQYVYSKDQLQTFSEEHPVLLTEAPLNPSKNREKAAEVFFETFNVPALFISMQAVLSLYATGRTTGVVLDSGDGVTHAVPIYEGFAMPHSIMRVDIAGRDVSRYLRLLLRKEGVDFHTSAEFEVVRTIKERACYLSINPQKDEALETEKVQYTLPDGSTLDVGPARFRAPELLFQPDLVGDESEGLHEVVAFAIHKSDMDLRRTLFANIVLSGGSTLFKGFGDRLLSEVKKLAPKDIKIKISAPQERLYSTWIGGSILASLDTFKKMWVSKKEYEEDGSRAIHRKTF
UniProt O60488: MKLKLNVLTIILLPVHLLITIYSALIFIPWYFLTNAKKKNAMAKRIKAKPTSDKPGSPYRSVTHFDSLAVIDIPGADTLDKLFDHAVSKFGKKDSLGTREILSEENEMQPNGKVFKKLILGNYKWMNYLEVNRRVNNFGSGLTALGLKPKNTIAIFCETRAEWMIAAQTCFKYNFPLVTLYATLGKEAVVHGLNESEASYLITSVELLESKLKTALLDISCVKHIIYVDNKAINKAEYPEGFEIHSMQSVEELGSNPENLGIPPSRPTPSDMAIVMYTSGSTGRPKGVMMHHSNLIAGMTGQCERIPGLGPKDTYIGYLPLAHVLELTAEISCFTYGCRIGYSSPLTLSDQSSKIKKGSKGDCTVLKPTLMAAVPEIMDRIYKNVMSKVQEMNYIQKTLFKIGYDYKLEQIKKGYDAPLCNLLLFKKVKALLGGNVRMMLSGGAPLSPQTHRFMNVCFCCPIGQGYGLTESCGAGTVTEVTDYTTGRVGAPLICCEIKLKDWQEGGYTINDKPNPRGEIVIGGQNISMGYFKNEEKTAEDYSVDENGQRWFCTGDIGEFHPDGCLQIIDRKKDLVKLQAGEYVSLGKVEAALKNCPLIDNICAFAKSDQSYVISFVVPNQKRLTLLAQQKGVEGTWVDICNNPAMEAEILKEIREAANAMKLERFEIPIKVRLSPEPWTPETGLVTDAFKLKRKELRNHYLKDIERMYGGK
UniProt P35611: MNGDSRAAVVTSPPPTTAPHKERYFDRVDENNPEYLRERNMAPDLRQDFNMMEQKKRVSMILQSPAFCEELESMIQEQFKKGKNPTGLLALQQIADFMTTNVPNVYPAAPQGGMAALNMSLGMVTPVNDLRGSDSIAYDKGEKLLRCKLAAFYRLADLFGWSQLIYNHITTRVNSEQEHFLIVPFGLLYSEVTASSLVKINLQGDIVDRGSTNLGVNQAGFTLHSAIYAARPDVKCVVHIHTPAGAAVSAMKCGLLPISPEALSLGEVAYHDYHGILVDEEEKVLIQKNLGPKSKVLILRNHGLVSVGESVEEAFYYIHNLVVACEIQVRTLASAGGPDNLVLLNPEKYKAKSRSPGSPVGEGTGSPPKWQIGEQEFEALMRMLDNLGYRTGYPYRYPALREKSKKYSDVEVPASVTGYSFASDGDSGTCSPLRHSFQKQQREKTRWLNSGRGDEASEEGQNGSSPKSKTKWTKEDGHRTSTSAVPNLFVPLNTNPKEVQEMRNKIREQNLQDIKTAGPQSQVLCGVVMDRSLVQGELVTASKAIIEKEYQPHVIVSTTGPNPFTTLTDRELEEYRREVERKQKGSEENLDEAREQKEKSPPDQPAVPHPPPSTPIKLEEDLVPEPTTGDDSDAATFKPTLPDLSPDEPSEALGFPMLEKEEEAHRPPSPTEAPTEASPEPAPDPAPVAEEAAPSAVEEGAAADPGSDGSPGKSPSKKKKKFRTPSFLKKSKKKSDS
UniProt Q12904: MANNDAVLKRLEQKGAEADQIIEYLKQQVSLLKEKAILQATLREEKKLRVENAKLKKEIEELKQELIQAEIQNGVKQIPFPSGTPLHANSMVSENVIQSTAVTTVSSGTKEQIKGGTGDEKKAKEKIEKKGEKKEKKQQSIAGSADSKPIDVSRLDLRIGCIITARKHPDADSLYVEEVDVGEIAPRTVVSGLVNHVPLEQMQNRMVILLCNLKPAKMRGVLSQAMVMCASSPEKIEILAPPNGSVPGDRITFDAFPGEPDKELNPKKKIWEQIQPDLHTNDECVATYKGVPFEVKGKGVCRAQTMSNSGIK
UniProt Q96SZ5, whole entry, looked up: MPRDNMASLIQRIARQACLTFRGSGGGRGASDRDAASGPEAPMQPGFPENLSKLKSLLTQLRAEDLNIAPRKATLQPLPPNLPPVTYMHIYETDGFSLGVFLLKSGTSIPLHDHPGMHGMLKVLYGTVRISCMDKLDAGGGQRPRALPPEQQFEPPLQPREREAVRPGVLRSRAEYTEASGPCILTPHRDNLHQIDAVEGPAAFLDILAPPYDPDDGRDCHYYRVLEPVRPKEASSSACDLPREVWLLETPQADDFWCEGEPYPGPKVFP
UniProt Q96P47: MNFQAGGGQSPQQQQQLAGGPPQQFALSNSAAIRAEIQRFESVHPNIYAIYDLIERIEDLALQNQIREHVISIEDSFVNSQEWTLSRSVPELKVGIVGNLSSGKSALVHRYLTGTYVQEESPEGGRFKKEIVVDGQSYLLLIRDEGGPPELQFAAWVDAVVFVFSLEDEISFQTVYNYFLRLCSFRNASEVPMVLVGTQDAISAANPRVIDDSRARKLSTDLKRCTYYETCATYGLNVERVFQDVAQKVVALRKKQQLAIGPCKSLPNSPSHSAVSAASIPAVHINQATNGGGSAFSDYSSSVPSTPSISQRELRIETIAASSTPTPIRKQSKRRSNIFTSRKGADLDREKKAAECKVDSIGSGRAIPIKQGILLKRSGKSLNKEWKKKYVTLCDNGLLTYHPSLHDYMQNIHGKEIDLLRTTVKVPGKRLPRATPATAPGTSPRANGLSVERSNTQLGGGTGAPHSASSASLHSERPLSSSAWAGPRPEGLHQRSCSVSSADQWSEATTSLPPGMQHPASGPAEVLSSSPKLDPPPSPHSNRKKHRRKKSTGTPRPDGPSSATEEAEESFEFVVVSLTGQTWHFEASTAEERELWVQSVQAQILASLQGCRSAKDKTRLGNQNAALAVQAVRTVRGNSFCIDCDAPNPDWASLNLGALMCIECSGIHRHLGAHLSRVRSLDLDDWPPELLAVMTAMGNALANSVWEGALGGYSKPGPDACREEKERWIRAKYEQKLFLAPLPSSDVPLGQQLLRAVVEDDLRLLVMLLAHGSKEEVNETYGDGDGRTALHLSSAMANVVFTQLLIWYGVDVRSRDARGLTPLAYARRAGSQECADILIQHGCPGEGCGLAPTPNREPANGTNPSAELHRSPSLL
UniProt O95573: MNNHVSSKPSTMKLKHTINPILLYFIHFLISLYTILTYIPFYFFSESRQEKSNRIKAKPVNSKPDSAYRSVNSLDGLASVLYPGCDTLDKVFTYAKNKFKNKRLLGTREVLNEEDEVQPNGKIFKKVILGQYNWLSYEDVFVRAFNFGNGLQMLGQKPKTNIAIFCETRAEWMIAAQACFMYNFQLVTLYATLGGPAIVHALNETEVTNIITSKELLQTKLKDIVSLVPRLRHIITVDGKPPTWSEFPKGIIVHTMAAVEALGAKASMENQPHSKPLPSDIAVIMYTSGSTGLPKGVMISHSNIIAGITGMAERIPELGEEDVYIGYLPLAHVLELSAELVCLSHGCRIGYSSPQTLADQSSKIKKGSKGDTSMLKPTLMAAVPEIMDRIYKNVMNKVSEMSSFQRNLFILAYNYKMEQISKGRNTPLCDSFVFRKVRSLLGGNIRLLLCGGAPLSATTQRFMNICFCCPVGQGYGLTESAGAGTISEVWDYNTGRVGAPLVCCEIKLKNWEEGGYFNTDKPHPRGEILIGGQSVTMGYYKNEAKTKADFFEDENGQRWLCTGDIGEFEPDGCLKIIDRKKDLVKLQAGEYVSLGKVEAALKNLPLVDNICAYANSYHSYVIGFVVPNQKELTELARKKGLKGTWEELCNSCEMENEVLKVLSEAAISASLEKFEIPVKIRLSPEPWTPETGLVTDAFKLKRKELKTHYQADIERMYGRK
UniProt P55265: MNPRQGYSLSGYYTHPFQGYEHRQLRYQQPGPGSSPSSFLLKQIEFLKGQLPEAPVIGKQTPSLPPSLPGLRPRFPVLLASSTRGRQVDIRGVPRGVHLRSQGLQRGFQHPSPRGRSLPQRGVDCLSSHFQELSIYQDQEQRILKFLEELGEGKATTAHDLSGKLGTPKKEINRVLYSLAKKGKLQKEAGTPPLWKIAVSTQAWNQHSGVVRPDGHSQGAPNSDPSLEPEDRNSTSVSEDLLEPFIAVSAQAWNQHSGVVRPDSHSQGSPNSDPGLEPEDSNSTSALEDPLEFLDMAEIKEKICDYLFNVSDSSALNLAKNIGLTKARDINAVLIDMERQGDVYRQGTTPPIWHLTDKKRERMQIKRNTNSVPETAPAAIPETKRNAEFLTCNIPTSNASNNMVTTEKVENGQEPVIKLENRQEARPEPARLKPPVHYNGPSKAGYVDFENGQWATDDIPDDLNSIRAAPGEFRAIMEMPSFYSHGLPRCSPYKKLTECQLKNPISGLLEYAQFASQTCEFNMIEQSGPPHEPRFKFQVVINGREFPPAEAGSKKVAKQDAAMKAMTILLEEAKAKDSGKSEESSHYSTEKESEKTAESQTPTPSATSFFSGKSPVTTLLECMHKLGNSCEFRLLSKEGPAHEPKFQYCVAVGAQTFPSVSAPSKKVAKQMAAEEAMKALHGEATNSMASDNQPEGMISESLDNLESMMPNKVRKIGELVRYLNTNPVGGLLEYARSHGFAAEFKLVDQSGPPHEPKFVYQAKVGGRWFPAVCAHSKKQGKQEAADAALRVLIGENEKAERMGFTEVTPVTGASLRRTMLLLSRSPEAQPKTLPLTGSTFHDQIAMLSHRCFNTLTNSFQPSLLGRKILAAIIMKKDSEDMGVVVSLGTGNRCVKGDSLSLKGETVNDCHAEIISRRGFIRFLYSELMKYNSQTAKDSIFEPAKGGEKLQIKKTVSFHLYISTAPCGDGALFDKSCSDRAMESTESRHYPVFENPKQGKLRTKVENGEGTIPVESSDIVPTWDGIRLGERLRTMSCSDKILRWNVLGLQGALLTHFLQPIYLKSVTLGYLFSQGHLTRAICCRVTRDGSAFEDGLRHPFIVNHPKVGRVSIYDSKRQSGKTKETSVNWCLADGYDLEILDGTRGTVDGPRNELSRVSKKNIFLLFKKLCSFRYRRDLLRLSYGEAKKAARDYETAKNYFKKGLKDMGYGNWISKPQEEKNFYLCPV
UniProt Q9NZ32, whole entry, looked up: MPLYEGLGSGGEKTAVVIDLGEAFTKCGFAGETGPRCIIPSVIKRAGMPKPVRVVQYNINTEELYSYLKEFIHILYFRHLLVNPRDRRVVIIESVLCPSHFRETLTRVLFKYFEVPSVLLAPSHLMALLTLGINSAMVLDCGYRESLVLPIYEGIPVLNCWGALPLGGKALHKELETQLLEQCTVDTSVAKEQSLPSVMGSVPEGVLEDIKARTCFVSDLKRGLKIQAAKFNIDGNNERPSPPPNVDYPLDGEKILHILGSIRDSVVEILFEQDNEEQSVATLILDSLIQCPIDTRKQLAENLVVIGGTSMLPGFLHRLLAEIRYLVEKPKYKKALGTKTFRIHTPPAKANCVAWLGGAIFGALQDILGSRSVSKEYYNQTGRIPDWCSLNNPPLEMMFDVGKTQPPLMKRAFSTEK
UniProt Q9BV57: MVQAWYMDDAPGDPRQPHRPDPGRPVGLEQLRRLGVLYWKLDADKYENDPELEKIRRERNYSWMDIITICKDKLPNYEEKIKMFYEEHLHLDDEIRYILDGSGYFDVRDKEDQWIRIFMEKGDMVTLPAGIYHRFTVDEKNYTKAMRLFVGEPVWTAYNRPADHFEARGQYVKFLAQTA
UniProt P14550: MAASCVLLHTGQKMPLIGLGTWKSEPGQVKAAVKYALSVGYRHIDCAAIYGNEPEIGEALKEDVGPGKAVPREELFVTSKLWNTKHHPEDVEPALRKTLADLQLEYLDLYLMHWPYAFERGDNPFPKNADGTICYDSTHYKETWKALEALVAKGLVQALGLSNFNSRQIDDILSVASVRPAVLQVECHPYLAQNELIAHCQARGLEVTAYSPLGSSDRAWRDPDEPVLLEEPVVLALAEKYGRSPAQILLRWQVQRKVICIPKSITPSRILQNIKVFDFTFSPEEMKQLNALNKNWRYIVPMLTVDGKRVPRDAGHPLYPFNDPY

Assays:
Experiment in all cases: log2 fold change, soluble protein after heating vs DMSO (PISA); higher = thermal stabilisation; K562 lysate, 10 uM; active = over 0.2 and 3.5 SD of the protein, either way, in both replicates (recomputed)
vemurafenib = compound: CCCS(=O)(=O)Nc1ccc(F)c(C(=O)c2c[nH]c3ncc(-c4ccc(Cl)cc4)cc23)c1F [vemurafenib]
Procedure, shortened: (§1)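 K562 pellets were dounce-homogenised in PBS pH 7.4 containing 1 mM MgCl2, and the crude extract, at 1 mg/mL protein, was exposed to 10 μM compound for 30 min. Aliquots were heated for 3 min across 48°C-58°C, pooled, brought to 0.5% NP-40 at 4°C and spun at 21,000xg for 90 min, with the supernatant taken as soluble protein. TMTpro 16plex LC-MS/MS with equalised channel sums quantified that protein. Values are log-two fold changes in thermal stability relative to solvent controls, taken from duplicates.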

[1] = compound: CCCS(=O)(=O)Nc1ccc(F)c(C(=O)c2c[nH]c3ncc(Cl)cc23)c1F
Procedure, shortened: as §1

barasertib = compound: CCN(CCCOc1ccc2c(Nc3cc(CC(=O)Nc4cccc(F)c4)[nH]n3)ncnc2c1)CCOP(=O)(O)O [barasertib]
Procedure, shortened: as §1

[2] = compound: CC[C@@H]1C(=O)N(C)c2cnc(Nc3ccc(C(=O)NC4CCN(C)CC4)cc3OC)nc2N1C1CCCC1
Procedure, shortened: as §1

volasertib = compound: CC[C@@H]1C(=O)N(C)c2cnc(Nc3ccc(C(=O)N[C@H]4CC[C@H](N5CCN(CC6CC6)CC5)CC4)cc3OC)nc2N1C(C)C [volasertib]
Procedure, shortened: as §1

[3] = compound: CCn1c(C(=O)N(C2CC2)C2CC2)cc2c3c(ncn3C)c(Nc3cc(C)n(C)n3)nc21
Procedure, shortened: as §1

[4] = compound: CCn1cc(-c2ccnc3[nH]c(-c4cccc(CN(C)C)c4)cc23)c(-c2ccc(NC(=O)N(C)C)cc2)n1
Procedure, shortened: as §1

[5] = compound: CN1CCC(CNc2ccc3ncc(-c4cccc(OC(F)(F)F)c4)n3n2)CC1
Procedure, shortened: as §1

saracatinib = compound: CN1CCN(CCOc2cc(OC3CCOCC3)c3c(Nc4c(Cl)ccc5c4OCO5)ncnc3c2)CC1 [saracatinib]
Procedure, shortened: as §1

sotrastaurin = compound: CN1CCN(c2nc(C3=C(c4c[nH]c5ccccc45)C(=O)NC3=O)c3ccccc3n2)CC1 [sotrastaurin]
Procedure, shortened: as §1

Row | Target | log2 fold change (vemurafenib) | log2 fold change [1] | log2 fold change (barasertib) | log2 fold change [2] | log2 fold change (volasertib) | log2 fold change [3] | log2 fold change [4] | log2 fold change [5] | log2 fold change (saracatinib) | log2 fold change (sotrastaurin)
1 | ACY1 (UniProt Q03154) | inactive: -0.025 | inactive: -0.001 | inactive: 0.062 | inactive: -0.001 | inactive: 0.01 | inactive: 0.009 | inactive: -0.034 | inactive: 0.06 | inactive: 0.028 | inactive: 0.022
2 | ACOT7 isoform 7 (UniProt O00154) | inactive: -0.017 | inactive: 0.004 | inactive: 0.005 | inactive: 0.018 | inactive: 0.007 | inactive: -0.015 | inactive: -0.028 | inactive: 0.055 | inactive: 0.005 | inactive: -0.072
3 | ACTR1B (UniProt P42025) | inactive: -0.038 | inactive: 0.038 | inactive: 0.024 | inactive: 0.059 | inactive: -0.001 | inactive: -0.018 | inactive: -0.099 | inactive: 0.038 | inactive: 0.019 | inactive: 0.046
4 | ACSL4 (UniProt O60488) | inactive: 0.061 | inactive: -0.007 | inactive: -0.006 | inactive: -0.029 | inactive: -0.001 | inactive: 0.036 | inactive: 0.008 | inactive: -0.02 | inactive: 0.047 | inactive: 0.043
5 | AKAP8L (UniProt Q9ULX6) | inactive: -0.003 | inactive: 0.033 | inactive: -0.066 | inactive: -0.036 | inactive: -0.042 | inactive: 0.019 | inactive: -0.042 | inactive: -0.01 | inactive: 0.002 | inactive: 0.013
6 | ACYP1 (UniProt P07311) | inactive: -0.038 | inactive: -0.024 | inactive: 0.024 | inactive: -0.005 | inactive: 0.032 | inactive: 0.006 | active: 0.284 | inactive: -0.082 | inactive: 0.003 | inactive: -0.032
7 | AKR1B1 (UniProt P15121) | inactive: 0.006 | inactive: 0.024 | inactive: 0.02 | inactive: 0.072 | inactive: -0.015 | inactive: 0.008 | inactive: -0.054 | inactive: 0.116 | inactive: 0.065 | inactive: -0.012
8 | ADD1 isoform 3 (UniProt P35611) | inactive: -0.025 | inactive: -0.002 | inactive: -0.001 | inactive: 0.036 | inactive: 0.007 | inactive: -0.002 | inactive: -0.013 | inactive: 0.054 | inactive: 0.002 | inactive: 0
9 | AIMP1 isoform 2 (UniProt Q12904) | inactive: 0.001 | inactive: 0.018 | inactive: 0.015 | inactive: -0.036 | inactive: -0.057 | inactive: 0.025 | inactive: -0.024 | inactive: -0.081 | inactive: 0.023 | inactive: -0.001
10 | AGO4 (UniProt Q9HCK5) | inactive: 0.033 | inactive: 0.003 | inactive: 0.04 | inactive: -0.003 | inactive: 0.017 | inactive: -0.003 | inactive: 0.036 | inactive: 0.041 | inactive: -0.011 | inactive: -0.021
11 | ACTR3 (UniProt P61158) | inactive: 0.011 | inactive: 0.052 | inactive: -0.026 | inactive: 0.021 | inactive: 0.016 | inactive: -0.013 | inactive: 0.024 | inactive: 0.041 | inactive: -0.033 | inactive: 0.02
12 | AFP (UniProt P02771) | inactive: 0.181 | inactive: 0.062 | inactive: -0.052 | inactive: 0.002 | inactive: -0.048 | inactive: 0.016 | inactive: 0.132 | inactive: -0.095 | inactive: 0.039 | inactive: 0.003
13 | ADH5 (UniProt P11766) | inactive: 0.003 | inactive: -0.035 | inactive: -0.017 | inactive: -0.039 | inactive: 0.024 | inactive: -0.007 | inactive: -0.04 | inactive: 0.029 | inactive: -0.026 | inactive: -0.031
14 | ADO (UniProt Q96SZ5) | inactive: 0.01 | inactive: 0.029 | inactive: 0.014 | inactive: -0.026 | inactive: 0.008 | inactive: -0.004 | inactive: -0.027 | inactive: 0.06 | inactive: 0 | inactive: -0.008
15 | ACTA1 (UniProt P68133) | inactive: 0.007 | inactive: 0.011 | inactive: 0.006 | inactive: 0.045 | inactive: -0.082 | inactive: -0.03 | inactive: 0.001 | inactive: 0.006 | inactive: 0.005 | inactive: 0.011
16 | AGAP3 isoform 4 (UniProt Q96P47) | inactive: -0.063 | inactive: 0.042 | inactive: 0.006 | inactive: -0.02 | inactive: -0.026 | inactive: 0.01 | inactive: 0.036 | inactive: -0.035 | inactive: 0.005 | inactive: 0.072
17 | ADAM9 (UniProt Q13443) | inactive: 0.08 | inactive: -0.01 | inactive: -0.013 | inactive: 0.092 | inactive: 0.002 | inactive: -0.005 | inactive: 0.058 | inactive: 0.047 | inactive: 0.02 | inactive: -0.016
18 | ACSL3 (UniProt O95573) | inactive: 0.005 | inactive: -0.004 | inactive: 0.051 | inactive: 0.072 | inactive: 0.003 | inactive: -0.042 | inactive: -0.055 | inactive: 0.048 | inactive: 0.038 | inactive: 0.036
19 | ADAR isoform 4 (UniProt P55265) | inactive: 0.077 | inactive: 0.051 | inactive: 0.061 | inactive: 0.011 | inactive: 0.003 | inactive: 0.025 | inactive: -0.001 | inactive: -0.049 | inactive: 0.04 | inactive: 0.032
20 | ACTN1 isoform 3 (UniProt P12814) | inactive: -0.022 | inactive: -0.009 | inactive: -0.025 | inactive: -0.001 | inactive: 0.034 | inactive: -0.005 | inactive: 0.046 | inactive: 0.017 | inactive: -0.007 | inactive: -0.017
21 | AFDN isoform 1 (UniProt P55196) | inactive: 0.01 | inactive: 0.012 | inactive: 0.005 | inactive: -0.003 | inactive: -0.022 | inactive: 0.014 | inactive: 0.03 | inactive: -0.061 | inactive: 0.01 | inactive: -0.004
22 | AGPAT1 (UniProt Q99943) | inactive: 0.008 | inactive: 0.016 | inactive: 0.038 | inactive: -0.013 | inactive: 0.006 | inactive: -0.004 | inactive: 0.068 | inactive: -0.049 | inactive: 0.038 | inactive: -0.009
23 | ACTR3B (UniProt Q9P1U1) | inactive: -0.032 | inactive: -0.001 | inactive: -0.033 | inactive: 0.065 | inactive: 0.012 | inactive: -0.042 | inactive: -0.027 | inactive: 0.036 | inactive: 0.013 | inactive: -0.091
24 | ACTR10 (UniProt Q9NZ32) | inactive: -0.028 | inactive: 0.071 | inactive: 0.009 | inactive: 0.022 | inactive: 0.021 | inactive: -0.037 | inactive: 0.043 | inactive: 0.05 | inactive: -0.021 | inactive: -0.096
25 | ACSF3 (UniProt Q4G176) | inactive: 0.074 | inactive: 0.07 | inactive: 0.014 | inactive: 0.025 | inactive: -0.068 | inactive: 0.022 | inactive: -0.058 | inactive: -0.066 | inactive: -0.014 | inactive: 0.005
26 | AK6 (UniProt Q9Y3D8) | inactive: 0.007 | inactive: -0.079 | inactive: 0.04 | inactive: -0.045 | inactive: 0.032 | inactive: 0.033 | inactive: -0.001 | inactive: -0.009 | inactive: 0.027 | inactive: 0.011
27 | ADI1 (UniProt Q9BV57) | inactive: -0.006 | inactive: 0.004 | inactive: 0.074 | inactive: 0.061 | inactive: -0.028 | inactive: -0.009 | inactive: -0.115 | inactive: 0.104 | inactive: 0.036 | inactive: 0.059
28 | AKR1A1 (UniProt P14550) | inactive: 0.012 | inactive: 0.006 | inactive: -0.016 | inactive: -0.005 | inactive: -0.015 | inactive: -0.001 | inactive: 0.156 | inactive: -0.015 | inactive: -0.031 | inactive: -0.015
29 | ADGRE2 (UniProt Q9UHX3) | inactive: -0.036 | inactive: 0.09 | inactive: -0.09 | inactive: 0.049 | inactive: -0.005 | inactive: -0.03 | inactive: -0.074 | inactive: 0.005 | inactive: 0.057 | inactive: -0.012
30 | ACOT8 (UniProt O14734) | inactive: 0.022 | inactive: -0.013 | inactive: -0.042 | inactive: 0.02 | inactive: -0.028 | inactive: -0.019 | inactive: -0.127 | inactive: 0.015 | inactive: 0.011 | inactive: 0.023
